Measurements reported in PubChem BioAssay AID720505 (Drosophila RNAi Screening Center, 2013)
In all, the deposit lists about 20,000 reagents; this is a random part of those that have a named target and a result. Of all reagents, about 2,100 (10%) were called active. 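Raw plate signals without normalisation; calls rest on control-based scores that were not deposited; replicate 2 separates called from uncalled poorly.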 A number with no mark means an inactive call. A plus sign joins genes that one reagent is predicted to hit. Not stated in the record: the amount of reagent, the time to read-out.

- Purpose: 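Fly regulators or components of the CRAC channel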 (primary screen)
- System: Drosophila S2R+ cells
- Reagents: long dsRNA against Drosophila genes
- Treatment: thapsigargin (2 µM) in calcium-free buffer to empty internal stores, then 2 mM calcium added back
- Measurement: 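Fluo-4 signal in 384-well plates read on a FLIPR after thapsigargin (2 µM, calcium-free) store depletion and 2 mM calcium add-back; unnormalised mean endpoint per well; screen run twice, selected wells retested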
- Direction: calcium signal and retest calcium signal: higher = more calcium entry after store depletion
- Hit rule: 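About 1500 genes called as lowering calcium entry, by varying amounts, judged against per-plate control wells with STIM1 as positive and Rho1 as negative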
- Meaning of the calls: active = called as lowering calcium entry; inactive = not called

gene,dsRNA,"calcium signal, replicate 1","calcium signal, replicate 2","retest calcium signal, replicate 1","retest calcium signal, replicate 2"
mthl4 (methuselah-like 4),DRSC06998,135,118,,
CG18281,DRSC11742,141,106,,
Rdh (Red herring),DRSC08434,104,79.6,92.4,88.9
ec (echinus),DRSC18658,146,81.4,,
COX4L (Cytochrome c oxidase subunit 4-like),DRSC04841,114,156,,
wap (wings apart),DRSC20626,144,110,,
vers (versatile),DRSC10715,92.9,101,,
vers (versatile),DRSC23232,105,186,,
CadN (Cadherin-N),DRSC03286,127,147,,
CG6791,DRSC16118,106,122,,
CG2772,DRSC00530,189,90.4,,
CG42306 + Gint3,DRSC06934,73 (active),105,,
Gcat (Glycine C-acetyltransferase),DRSC09719,84.3,81,,
CG31921,DRSC00013,119,144,,
CG17560,DRSC15242,119,146,,
Pkcdelta (Protein kinase C delta),DRSC19356,67 (active),84.9,,
Pkcdelta (Protein kinase C delta),DRSC19399,93.4,77.8,,
eIF3f1 (eukaryotic translation initiation factor 3 subunit f1),DRSC12328,84.5,118,,
xit (xiantuan),DRSC18364,178,113,,
galectin,DRSC00305,198,150,,
Brd (Bearded),DRSC09685,71.8,116,,
CG31099,DRSC14252,267,123,,
CG5274,DRSC11774,125,106,,
CG10337,DRSC02038,56,145,,
CG9029,DRSC03129,218,98.7,,
CG15139 (retired record),DRSC02439,113,147,,
comm (commissureless),DRSC11336,101,144,,
CG6959,DRSC16151,178,115,,
mamo (maternal gene required for meiosis),DRSC19001,62.3 (active),68.4,,
mamo (maternal gene required for meiosis),DRSC19370,105,133,,
mamo (maternal gene required for meiosis),DRSC19371,92.1,131,,
mamo (maternal gene required for meiosis),DRSC19372,134,127,7096,96.8
mamo (maternal gene required for meiosis),DRSC19373,109,123,7220,89.3
mamo (maternal gene required for meiosis),DRSC23035,102,156,,
CG33914,DRSC05033,72.7,69.5,,
CG33914,DRSC05034,77.7,81.5,,
VhaPPA1-1 (Vacuolar H[+] ATPase PPA1 subunit 1),DRSC16170,99.5,89.6,,
Trf4-2 (Topoisomerase related function 4-2),DRSC15237,147,146,,
CG7011 + Prp31,DRSC10760,79.2,83.3,,
CG30383,DRSC05062,70.1 (active),119,,
CG30187,DRSC22461,157,143,,
"ATPsynbeta (ATP synthase, beta subunit)",DRSC17194,63.9 (active),93.2,,
ckn (caskin),DRSC06149,140,143,,
CG16854,DRSC02536,170,144,,
pnr (pannier),DRSC17027,146,194,,
CG42814,DRSC15940,155,167,,
kto (kohtalo),DRSC10983,129,113,,
CG34434,DRSC18134,113,79.1,,
CG5087,DRSC10479,133,82.3,,
unc-119,DRSC18846,228,130,,
Urod (Uroporphyrinogen decarboxylase),DRSC07569,126,195,,
Vm26Aa (Vitelline membrane 26Aa),DRSC03472,158,110,,
CG14053,DRSC17908,114,116,,
CG3557,DRSC00614,72.4,127,,
Gabat (gamma-aminobutyric acid transaminase),DRSC10846,81.9,111,,
CG8916,DRSC20120,102,137,,
CG42540,DRSC08327,69.5 (active),151,,
CG42540,DRSC08328,86.2,81.6,,
CG42540,DRSC08593,89.4,68.2,,
CG42540,DRSC23011,103,121,,
"Pp1-Y1 (Protein phosphatase 1, Y-linked 1)",DRSC20896,81.5,7058,,
Ir76a (Ionotropic receptor 76a),DRSC10987,103,111,,
asRNA:CR31084 (antisense RNA:CR31084),DRSC21649,111,80.5,,
CG15172,DRSC02473,133,126,,
hdm (hold'em),DRSC18013,161,116,,
CG14086,DRSC10090,111,163,,
CalpB (Calpain-B),DRSC11109,78.2,70.4,,
CG14151,DRSC10153,78.7,71.5,,
Mst27D (Male specific transcript 27D),DRSC00967,76.7 (active),81.2,,
CG17777,DRSC18137,131,120,,
ogre (optic ganglion reduced),DRSC18809,136,105,,
serp (serpentine),DRSC11035,116,138,,
serp (serpentine),DRSC11036,111,181,,
Ir94e (Ionotropic receptor 94e),DRSC15229,205,119,7742,139
CG14803,DRSC18556,74.8,114,,
CG42254 (retired record),DRSC06194,177,224,,
CG10492,DRSC02064,124,149,,
Txl (Thioredoxin-like),DRSC11310,82.5,63.5,,
"E(spl)mgamma-HLH (Enhancer of split mgamma, helix-loop-helix)",DRSC16699,181,144,,
CG2811,DRSC04318,77.5,112,,
CG1360,DRSC06406,158,106,,
CG43376,DRSC02537,168,129,,
CG17198 + CG17197,DRSC15190,136,106,,
CG17198 + CG17197,DRSC15191,174,125,,
